Measured values reported in US20200377561A1, “ANTIMICROBIAL PEPTIDES AND METHODS OF TREATING GRAM-NEGATIVE PATHOGEN INFECTIONS: POLAR AND NON-POLAR FACE ANALOGS” (THE REGENTS OF THE UNIVERSITY OF COLORADO, a body corporate, priority 2017, published 2020).
Peptide text beside a SMILES is read from it.

tested on: Human erythrocytes; experiment: Haemolysis assay using human blood; assay type: cell-based; conditions: therapeutic index, HC50 over A. baumannii NCTC13420 MIC
Protocol: To determine the extent of haemolytic activity (the ability to lyse red blood cells) in test peptides, a haemolysis assay was conducted using human blood (BioIVT, West Sussex, UK). Human erythrocytes were exposed to a single fixed concentration or a range of concentrations as to determine the % haemolysis (fixed concentration) or the concentration at which 50% haemolysis occurred (HC50), respectively. Prior to the assay, whole human blood was repeatedly washed in phosphate buffered saline (PBS) under cooled conditions to remove the buffy coat, plasma and cell debris. Washed erythrocytes were diluted as to achieve 1×10^8 cells/mL in PBS. Prepared human erythrocyte samples were combined with peptide at a single fixed concentration of 128 μg/mL, or a range of concentrations (two-fold dilution series) from 1000-31.25 μg/mL. Positive and negative controls containing 2% (v/v) Triton X-100 and PBS alone, respectively, were also prepared. Samples were incubated at 37° C. for 1 hour and then centrifuged to collect intact erythrocytes. Haemoglobin release was determined by recording the optical density of the supernatant at 540 nm. Optical density values were transformed to a percentage of the positive control. Results were recorded as a percentage haemolysis at 128 μg/mL, or by plotting the percentage haemolysis versus concentration and extrapolating the HC50 using linear regression analysis (Table 2 above)
The therapeutic index is a widely-accepted parameter to represent the specificity of antimicrobial peptides for prokaryotic versus eukaryotic cells. It is calculated by the ratio of hemolytic activity and antimicrobial activity (MIC) (Table 2 above); thus, larger values of therapeutic index indicate greater specificity for prokaryotic cells. With the peptides used in this study the inventors used the HC50/MIC ratio value to calculate the therapeutic index.

Structure (SMILES)	HC50/A.b MIC selectivity ratio
CC(=O)N[C@H](CCCCN)C(=O)N[C@H](CC(C)C)C(=O)N[C@H](CCCCN)C(=O)N[C@H](CCCCN)C(=O)N[C@H](CC(C)C)C(=O)N[C@H](CC(C)C)C(=O)N[C@H](CCCCN)C(=O)N[C@H](CCCCN)C(=O)N[C@H](CC(C)C)C(=O)N[C@H](CO)C(=O)N[C@H](CO)C(=O)N[C@H](C)C(=O)N[C@H](CCN)C(=O)N[C@H](CO)C(=O)N[C@H](CO)C(=O)N[C@H](CCN)C(=O)N[C@H](CC(C)C)C(=O)N[C@H](CO)C(=O)N[C@@H](C(=O)N[C@H](CC(C)C)C(=O)N[C@H](CC(C)C)C(=O)N[C@H](CCCCN)C(=O)N[C@H](CCCCN)C(=O)N[C@H](CC(C)C)C(=O)N[C@H](CCCCN)C(=O)N[C@H](CCCCN)C(N)=O)[C@H](C)O [compound 15] (HELM PEPTIDE1{[ac].[dK].[dL].[dK].[dK].[dL].[dL].[dK].[dK].[dL].[dS].[dS].[dA].[NCC[C@@H](N[*:1])C(=O)[*:2]].[dS].[dS].[NCC[C@@H](N[*:1])C(=O)[*:2]].[dL].[dS].[dT].[dL].[dL].[dK].[dK].[dL].[dK].[dK].[am]}$$$$V2.0)	>500
CC(=O)N[C@H](CCCCN)C(=O)N[C@H](CC(C)C)C(=O)N[C@H](CO)C(=O)N[C@H](CO)C(=O)N[C@H](CC(C)C)C(=O)N[C@H](CC(C)C)C(=O)N[C@H](CO)C(=O)N[C@H](CCCCN)C(=O)N[C@H](CC(C)C)C(=O)N[C@H](CCCCN)C(=O)N[C@H](CCCCN)C(=O)N[C@H](C)C(=O)N[C@H](CCCCN)C(=O)N[C@H](CCCCN)C(=O)N[C@H](CCCCN)C(=O)N[C@H](CCCCN)C(=O)N[C@H](CC(C)C)C(=O)N[C@H](CCCCN)C(=O)N[C@H](CCCCN)C(=O)N[C@H](CC(C)C)C(=O)N[C@H](CC(C)C)C(=O)N[C@H](CCCCN)C(=O)N[C@H](C)C(=O)N[C@H](CC(C)C)C(=O)N[C@H](CO)C(=O)N[C@H](CO)C(N)=O [compound 5] (HELM PEPTIDE1{[ac].[dK].[dL].[dS].[dS].[dL].[dL].[dS].[dK].[dL].[dK].[dK].[dA].[dK].[dK].[dK].[dK].[dL].[dK].[dK].[dL].[dL].[dK].[dA].[dL].[dS].[dS].[am]}$$$$V2.0)	669
CC(=O)N[C@H](CCCCN)C(=O)N[C@H](CC(C)C)C(=O)N[C@H](CCCCN)C(=O)N[C@H](CCCCN)C(=O)N[C@H](CC(C)C)C(=O)N[C@H](CC(C)C)C(=O)N[C@H](CCCCN)C(=O)N[C@H](CCCCN)C(=O)N[C@H](CC(C)C)C(=O)N[C@H](CCCCN)C(=O)N[C@H](CO)C(=O)N[C@H](C)C(=O)N[C@H](CCCCN)C(=O)N[C@H](CO)C(=O)N[C@H](CO)C(=O)N[C@H](CCCCN)C(=O)N[C@H](CC(C)C)C(=O)N[C@H](CO)C(=O)N[C@@H](C(=O)N[C@H](CC(C)C)C(=O)N[C@H](CC(C)C)C(=O)N[C@H](CO)C(=O)N[C@H](CCCCN)C(=O)N[C@H](CC(C)C)C(=O)N[C@H](CCCCN)C(=O)N[C@H](CCCCN)C(N)=O)[C@H](C)O [compound 6] (HELM PEPTIDE1{[ac].[dK].[dL].[dK].[dK].[dL].[dL].[dK].[dK].[dL].[dK].[dS].[dA].[dK].[dS].[dS].[dK].[dL].[dS].[dT].[dL].[dL].[dS].[dK].[dL].[dK].[dK].[am]}$$$$V2.0)	>1000
CC(=O)N[C@H](C)C(=O)N[C@H](CC(C)C)C(=O)N[C@H](CCCCN)C(=O)N[C@H](CCCCN)C(=O)N[C@H](CC(C)C)C(=O)N[C@H](CC(C)C)C(=O)N[C@H](CCCCN)C(=O)N[C@H](CCCCN)C(=O)N[C@H](CC(C)C)C(=O)N[C@H](CO)C(=O)N[C@H](CO)C(=O)N[C@H](C)C(=O)N[C@H](CCN)C(=O)N[C@H](CO)C(=O)N[C@H](CO)C(=O)N[C@H](CCN)C(=O)N[C@H](CC(C)C)C(=O)N[C@H](CO)C(=O)N[C@@H](C(=O)N[C@H](CC(C)C)C(=O)N[C@H](CC(C)C)C(=O)N[C@H](CCCCN)C(=O)N[C@H](CCCCN)C(=O)N[C@H](CC(C)C)C(=O)N[C@H](CCCCN)C(=O)N[C@H](CCCCN)C(N)=O)[C@H](C)O [compound 20] (HELM PEPTIDE1{[ac].[dA].[dL].[dK].[dK].[dL].[dL].[dK].[dK].[dL].[dS].[dS].[dA].[NCC[C@@H](N[*:1])C(=O)[*:2]].[dS].[dS].[NCC[C@@H](N[*:1])C(=O)[*:2]].[dL].[dS].[dT].[dL].[dL].[dK].[dK].[dL].[dK].[dK].[am]}$$$$V2.0)	>500
CC(=O)N[C@H](C)C(=O)N[C@H](CC(C)C)C(=O)N[C@H](CCCCN)C(=O)N[C@H](CO)C(=O)N[C@H](CC(C)C)C(=O)N[C@H](CC(C)C)C(=O)N[C@H](CCCCN)C(=O)N[C@H](CCCCN)C(=O)N[C@H](CC(C)C)C(=O)N[C@H](CO)C(=O)N[C@H](CCCCN)C(=O)N[C@H](C)C(=O)N[C@H](CCCCN)C(=O)N[C@H](CCCCN)C(=O)N[C@H](CCCCN)C(=O)N[C@H](CCCCN)C(=O)N[C@H](CC(C)C)C(=O)N[C@H](CCCCN)C(=O)N[C@H](CCCCN)C(=O)N[C@H](CC(C)C)C(=O)N[C@H](CC(C)C)C(=O)N[C@H](CCCCN)C(=O)N[C@H](C)C(=O)N[C@H](CC(C)C)C(=O)N[C@H](CO)C(=O)N[C@H](CO)C(N)=O [compound 23] (HELM PEPTIDE1{[ac].[dA].[dL].[dK].[dS].[dL].[dL].[dK].[dK].[dL].[dS].[dK].[dA].[dK].[dK].[dK].[dK].[dL].[dK].[dK].[dL].[dL].[dK].[dA].[dL].[dS].[dS].[am]}$$$$V2.0)	87.5
